Data as given in the supplement of paper PMC7661543.
Differences between knockout arms are mostly noise.

System: MDA-MB-231
Assay: relative cell number vs DMSO control (72 h) (% of DMSO); higher = less growth inhibition (more cells)
Method: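 QMAP-Seq: a pool of 5 breast cancer cell lines (ZR-75-1, SKBR3, HCC-38, MDA-MB-231, BT-20), each carrying 12 doxycycline-inducible Cas9 sgRNA perturbations (11 knockouts plus non-targeting sgNT), was treated with compounds for 72 h at four 10-fold doses (10 nM-10 uM or 1 nM-1 uM range). Barcodes were amplified and sequenced, and cell number was interpolated from 293T spike-in standard curves. The result is expressed as % of the median of DMSO wells. Two biological replicates.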

Cc1ccc(NC(=O)c2ccc(CN3CCN(C)CC3)cc2)cc1Nc1nc(-c2cccnc2)cs1 [Masitinib]
Details | relative cell number
sgRNA knockout: sgATF3, 10 nM | 107
sgRNA knockout: sgATF3, 100 nM | 88.7
sgRNA knockout: sgATF3, 1000 nM | 87.8
sgRNA knockout: sgATF3, 10000 nM | 55.8
sgRNA knockout: sgATF4, 10 nM | 96.2
sgRNA knockout: sgATF4, 100 nM | 97.3
sgRNA knockout: sgATF4, 1000 nM | 76.7
sgRNA knockout: sgATF4, 10000 nM | 48.1
sgRNA knockout: sgATF6, 10 nM | 128
sgRNA knockout: sgATF6, 100 nM | 96.4
sgRNA knockout: sgATF6, 1000 nM | 104
sgRNA knockout: sgATF6, 10000 nM | 46.7
sgRNA knockout: sgATG7, 10 nM | 83.6
sgRNA knockout: sgATG7, 100 nM | 97.1
sgRNA knockout: sgATG7, 1000 nM | 69.9
sgRNA knockout: sgATG7, 10000 nM | 60.6
sgRNA knockout: sgERN1, 10 nM | 115
sgRNA knockout: sgERN1, 100 nM | 117
sgRNA knockout: sgERN1, 1000 nM | 122
sgRNA knockout: sgERN1, 10000 nM | 43
sgRNA knockout: sgHSF1, 10 nM | 86
sgRNA knockout: sgHSF1, 100 nM | 91
sgRNA knockout: sgHSF1, 1000 nM | 80.5
sgRNA knockout: sgHSF1, 10000 nM | 43.8
sgRNA knockout: sgHSF2, 10 nM | 86.4
sgRNA knockout: sgHSF2, 100 nM | 97.6
sgRNA knockout: sgHSF2, 1000 nM | 97.5
sgRNA knockout: sgHSF2, 10000 nM | 63.6
sgRNA knockout: sgKEAP1, 10 nM | 99.9
sgRNA knockout: sgKEAP1, 100 nM | 78.7
sgRNA knockout: sgKEAP1, 1000 nM | 109
sgRNA knockout: sgKEAP1, 10000 nM | 46.9
sgRNA knockout: sgNFE2L2, 10 nM | 113
sgRNA knockout: sgNFE2L2, 100 nM | 77.8
sgRNA knockout: sgNFE2L2, 1000 nM | 105
sgRNA knockout: sgNFE2L2, 10000 nM | 46.8
sgRNA knockout: sgSLC35F2, 10 nM | 102
sgRNA knockout: sgSLC35F2, 100 nM | 79.2
sgRNA knockout: sgSLC35F2, 1000 nM | 94.9
sgRNA knockout: sgSLC35F2, 10000 nM | 71.2
sgRNA knockout: sgXBP1, 10 nM | 80.9
sgRNA knockout: sgXBP1, 100 nM | 90.6
sgRNA knockout: sgXBP1, 1000 nM | 112
sgRNA knockout: sgXBP1, 10000 nM | 46.54

COC(=O)Nc1nc2cc(C(=O)c3ccccc3)ccc2[nH]1 [Mebendazole]
Details | relative cell number
sgRNA knockout: sgATF3, 10 nM | 93.9
sgRNA knockout: sgATF3, 100 nM | 83.6
sgRNA knockout: sgATF3, 1000 nM | 39
sgRNA knockout: sgATF3, 10000 nM | 23.4
sgRNA knockout: sgATF4, 10 nM | 103
sgRNA knockout: sgATF4, 100 nM | 69.3
sgRNA knockout: sgATF4, 1000 nM | 32.9
sgRNA knockout: sgATF4, 10000 nM | 22.8
sgRNA knockout: sgATF6, 10 nM | 102
sgRNA knockout: sgATF6, 100 nM | 74
sgRNA knockout: sgATF6, 1000 nM | 34.9
sgRNA knockout: sgATF6, 10000 nM | 22.7
sgRNA knockout: sgATG7, 10 nM | 99
sgRNA knockout: sgATG7, 100 nM | 70.7
sgRNA knockout: sgATG7, 1000 nM | 30.6
sgRNA knockout: sgATG7, 10000 nM | 22.5
sgRNA knockout: sgERN1, 10 nM | 97.2
sgRNA knockout: sgERN1, 100 nM | 89
sgRNA knockout: sgERN1, 1000 nM | 42
sgRNA knockout: sgERN1, 10000 nM | 18
sgRNA knockout: sgHSF1, 10 nM | 86.3
sgRNA knockout: sgHSF1, 100 nM | 64.8
sgRNA knockout: sgHSF1, 1000 nM | 30.1
sgRNA knockout: sgHSF1, 10000 nM | 21.6
sgRNA knockout: sgHSF2, 10 nM | 93.2
sgRNA knockout: sgHSF2, 100 nM | 85.3
sgRNA knockout: sgHSF2, 1000 nM | 29.6
sgRNA knockout: sgHSF2, 10000 nM | 21.8
sgRNA knockout: sgKEAP1, 10 nM | 110
sgRNA knockout: sgKEAP1, 100 nM | 62.7
sgRNA knockout: sgKEAP1, 1000 nM | 27
sgRNA knockout: sgKEAP1, 10000 nM | 16
sgRNA knockout: sgNFE2L2, 10 nM | 101
sgRNA knockout: sgNFE2L2, 100 nM | 60.1
sgRNA knockout: sgNFE2L2, 1000 nM | 30.6
sgRNA knockout: sgNFE2L2, 10000 nM | 20.8
sgRNA knockout: sgSLC35F2, 10 nM | 86.7
sgRNA knockout: sgSLC35F2, 100 nM | 78.5
sgRNA knockout: sgSLC35F2, 1000 nM | 29.9
sgRNA knockout: sgSLC35F2, 10000 nM | 25.3
sgRNA knockout: sgXBP1, 10 nM | 87.85
sgRNA knockout: sgXBP1, 100 nM | 64
sgRNA knockout: sgXBP1, 1000 nM | 30.8
sgRNA knockout: sgXBP1, 10000 nM | 19.8

CN1C(=O)C(Cc2c[nH]c3ccccc23)NC1=S (configuration not stated) [Necrostatin1]
Details | relative cell number
sgRNA knockout: sgATF3, 10 nM | 109
sgRNA knockout: sgATF3, 100 nM | 92.7
sgRNA knockout: sgATF3, 1000 nM | 94.7
sgRNA knockout: sgATF3, 10000 nM | 85
sgRNA knockout: sgATF4, 10 nM | 71.4
sgRNA knockout: sgATF4, 100 nM | 70.9
sgRNA knockout: sgATF4, 1000 nM | 75.7
sgRNA knockout: sgATF4, 10000 nM | 108
sgRNA knockout: sgATF6, 10 nM | 68
sgRNA knockout: sgATF6, 100 nM | 66.3
sgRNA knockout: sgATF6, 1000 nM | 62.8
sgRNA knockout: sgATF6, 10000 nM | 89.2
sgRNA knockout: sgATG7, 10 nM | 90.1
sgRNA knockout: sgATG7, 100 nM | 87.2
sgRNA knockout: sgATG7, 1000 nM | 98.1
sgRNA knockout: sgATG7, 10000 nM | 79.2
sgRNA knockout: sgERN1, 10 nM | 112
sgRNA knockout: sgERN1, 100 nM | 94
sgRNA knockout: sgERN1, 1000 nM | 94.5
sgRNA knockout: sgERN1, 10000 nM | 80
sgRNA knockout: sgHSF1, 10 nM | 92
sgRNA knockout: sgHSF1, 100 nM | 72.6
sgRNA knockout: sgHSF1, 1000 nM | 82.1
sgRNA knockout: sgHSF1, 10000 nM | 82.7
sgRNA knockout: sgHSF2, 10 nM | 97.2
sgRNA knockout: sgHSF2, 100 nM | 94.9
sgRNA knockout: sgHSF2, 1000 nM | 81.6
sgRNA knockout: sgHSF2, 10000 nM | 74.1
sgRNA knockout: sgKEAP1, 10 nM | 97.1
sgRNA knockout: sgKEAP1, 100 nM | 78.85
sgRNA knockout: sgKEAP1, 1000 nM | 83.1
sgRNA knockout: sgKEAP1, 10000 nM | 73.1
sgRNA knockout: sgNFE2L2, 10 nM | 113
sgRNA knockout: sgNFE2L2, 100 nM | 92.7
sgRNA knockout: sgNFE2L2, 1000 nM | 71.4
sgRNA knockout: sgNFE2L2, 10000 nM | 90.2
sgRNA knockout: sgSLC35F2, 10 nM | 72.9
sgRNA knockout: sgSLC35F2, 100 nM | 82.2
sgRNA knockout: sgSLC35F2, 1000 nM | 88.4
sgRNA knockout: sgSLC35F2, 10000 nM | 78.6
sgRNA knockout: sgXBP1, 10 nM | 83.7
sgRNA knockout: sgXBP1, 100 nM | 73.2
sgRNA knockout: sgXBP1, 1000 nM | 77.2
sgRNA knockout: sgXBP1, 10000 nM | 68.7
